Measured values as given in publication doi:10.1101/2025.09.23.678001.
No constants are given. Whether binding was seen depends on the method and setting. In cells and extracts the contact can be indirect. Here binding means that the protein was enriched with, or labelled near, the bait; the list need not be complete.

Chains of the proteins cited; added tags and fusions are not shown. Lines headed by an entry give the natural chain unless they say otherwise; changes in a name come on top.
UniProt Q8IIP2: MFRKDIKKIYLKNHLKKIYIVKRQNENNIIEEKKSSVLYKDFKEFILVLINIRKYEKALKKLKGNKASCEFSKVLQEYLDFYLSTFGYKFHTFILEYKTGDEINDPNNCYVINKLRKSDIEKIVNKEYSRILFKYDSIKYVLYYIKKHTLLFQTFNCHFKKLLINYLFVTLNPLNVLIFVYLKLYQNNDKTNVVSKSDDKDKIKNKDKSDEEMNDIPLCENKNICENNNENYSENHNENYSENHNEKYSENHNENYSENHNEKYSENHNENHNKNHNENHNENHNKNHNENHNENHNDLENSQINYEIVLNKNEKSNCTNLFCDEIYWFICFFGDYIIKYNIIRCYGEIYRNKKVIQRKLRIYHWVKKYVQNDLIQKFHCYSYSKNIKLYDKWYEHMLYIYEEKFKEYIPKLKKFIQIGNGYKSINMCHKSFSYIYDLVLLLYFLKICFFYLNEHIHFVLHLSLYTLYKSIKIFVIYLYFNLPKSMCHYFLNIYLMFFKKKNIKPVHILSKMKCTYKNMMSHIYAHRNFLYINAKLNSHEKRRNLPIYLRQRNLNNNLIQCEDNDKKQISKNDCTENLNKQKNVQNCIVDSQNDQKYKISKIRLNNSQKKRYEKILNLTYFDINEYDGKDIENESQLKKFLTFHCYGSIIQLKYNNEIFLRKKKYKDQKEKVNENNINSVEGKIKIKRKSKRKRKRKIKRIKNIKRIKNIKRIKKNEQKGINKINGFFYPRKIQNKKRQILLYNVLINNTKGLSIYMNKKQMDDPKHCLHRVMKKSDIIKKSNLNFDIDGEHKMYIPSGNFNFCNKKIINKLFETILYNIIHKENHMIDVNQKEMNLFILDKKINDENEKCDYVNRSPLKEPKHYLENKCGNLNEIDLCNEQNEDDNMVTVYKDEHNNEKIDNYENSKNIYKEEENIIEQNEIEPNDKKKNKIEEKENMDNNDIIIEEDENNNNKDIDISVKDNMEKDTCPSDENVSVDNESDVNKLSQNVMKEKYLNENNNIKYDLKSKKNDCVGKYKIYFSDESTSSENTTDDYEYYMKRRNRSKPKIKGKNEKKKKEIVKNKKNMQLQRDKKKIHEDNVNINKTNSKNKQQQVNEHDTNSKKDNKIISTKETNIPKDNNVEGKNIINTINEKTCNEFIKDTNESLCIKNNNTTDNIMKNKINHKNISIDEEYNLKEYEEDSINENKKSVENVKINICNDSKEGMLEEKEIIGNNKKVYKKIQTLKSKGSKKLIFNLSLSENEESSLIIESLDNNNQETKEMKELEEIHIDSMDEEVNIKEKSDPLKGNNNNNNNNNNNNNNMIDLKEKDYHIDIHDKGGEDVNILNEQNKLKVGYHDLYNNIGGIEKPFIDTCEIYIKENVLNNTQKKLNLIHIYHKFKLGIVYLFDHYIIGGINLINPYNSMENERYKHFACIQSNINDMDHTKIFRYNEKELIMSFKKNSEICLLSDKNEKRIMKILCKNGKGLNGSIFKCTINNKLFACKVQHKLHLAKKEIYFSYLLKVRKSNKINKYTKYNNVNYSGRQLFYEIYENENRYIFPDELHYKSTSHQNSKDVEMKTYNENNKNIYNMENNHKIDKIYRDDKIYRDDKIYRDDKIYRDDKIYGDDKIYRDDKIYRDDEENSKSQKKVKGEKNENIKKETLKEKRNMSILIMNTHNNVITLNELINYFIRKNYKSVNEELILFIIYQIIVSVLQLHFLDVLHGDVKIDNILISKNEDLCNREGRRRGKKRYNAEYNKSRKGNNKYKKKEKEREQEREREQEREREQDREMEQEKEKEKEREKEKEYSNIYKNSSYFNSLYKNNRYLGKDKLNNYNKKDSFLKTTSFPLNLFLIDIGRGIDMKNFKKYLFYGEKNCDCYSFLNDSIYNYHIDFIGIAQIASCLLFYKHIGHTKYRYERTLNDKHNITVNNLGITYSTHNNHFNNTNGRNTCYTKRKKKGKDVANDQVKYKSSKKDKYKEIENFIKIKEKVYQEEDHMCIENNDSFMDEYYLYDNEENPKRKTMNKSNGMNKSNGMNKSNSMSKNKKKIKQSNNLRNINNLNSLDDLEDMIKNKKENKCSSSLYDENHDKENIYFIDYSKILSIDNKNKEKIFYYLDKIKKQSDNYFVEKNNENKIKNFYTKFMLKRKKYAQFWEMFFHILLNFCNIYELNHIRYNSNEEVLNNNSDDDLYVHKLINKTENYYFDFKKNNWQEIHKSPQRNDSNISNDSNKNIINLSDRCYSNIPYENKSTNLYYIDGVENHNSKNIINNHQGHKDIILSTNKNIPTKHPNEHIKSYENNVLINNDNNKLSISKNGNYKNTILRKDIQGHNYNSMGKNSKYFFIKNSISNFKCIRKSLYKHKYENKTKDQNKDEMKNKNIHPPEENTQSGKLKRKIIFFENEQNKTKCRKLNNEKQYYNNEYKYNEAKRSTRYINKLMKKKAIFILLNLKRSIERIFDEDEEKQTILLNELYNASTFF

Key:
[1] = target: SMC1 tagged at the C-terminus with GFP (P. falciparum (endogenous in NF54 parasites)) (UniProt Q8II57); assay: proximity labelling
[2] = target: CENH3 fused to an N-terminal sandwich tag (2xFKBP-GFP-2xFKBP) (P. falciparum (endogenous in 3D7 parasites)) (UniProt Q8IDZ1); assay: proximity labelling
[3] = target: EUC4, C-terminally 2xFKBP-GFP-2xFKBP-tagged (P. falciparum (endogenous in 3D7 parasites)); assay: affinity purification with mass spectrometry
[4] = target: EUC2, C-terminally 2xFKBP-GFP-2xFKBP-tagged (P. falciparum (endogenous in 3D7 parasites)); assay: affinity purification with mass spectrometry
[5] = target: EUC6, C-terminally 2xFKBP-GFP-2xFKBP-tagged (P. falciparum (endogenous in 3D7 parasites)); assay: affinity purification with mass spectrometry

putative kinase (PF3D7_1112100) (from UniProt Q8IIP2)
binding [1]: binds
binding [2]: binds

B1: PF3D7_0505600 (protein, UniProt Q8I446 1-333)
chain: MATILTMQFPSSDEEDEDYFVDEENDNDDEDDDDNNNNNNNNEHNNNEHNNDQHNNNVHNNDQHNNNHMKTIRKKRKGRCKDIKNSIKKSIIKEKIEKTYKDINLEYKQLYSHESNIRNGDFLLQFHKKDPQICKKYNSIDKLYNHLNKYCSIEQDNKNIKNNNQQQNDNHVNNDEDHYSQHYITMKEYKKKSRNDQYVNEIHNNHLVKSALDNFYDNNSIHVEKKYMYAGKIFTIKKKIDKTSASYKRYLKTQDKINIGGNFSNIDELIQNIQEQKQINTIDKSSEDWKQYKLINLVDDDKLKKNQHYLENKFFEENVERRVYENKIKKLHK
binding [3]: binds

B2: 14-3-3I (protein, UniProt C0H4V6 1-262)
chain: MATSEELKQLRCDCTYRSKLAEQAERYDEMADAMRTLVEQCVNNDKDELTVEERNLLSVAYKNAVGARRASWRIISSVEQKEMSKANVHNKNVAATYRKKVEEELNNICQDILNLLTKKLIPNTSESESKVFYYKMKGDYYRYISEFSCDEGKKEASNCAQEAYQKATDIAENELPSTHPIRLGLALNYSVFFYEILNQPHQACEMAKRAFDDAITEFDNVSEDSYKDSTLIMQLLRDNLTLWTSDLQGDQTEEKSKDEGLE
binding [4]: binds
binding [5]: binds
